Experimental findings from patent publication US7531507B2 (AiCuris GmbH & Co. KG, priority 2004, dated 2009) are described below.

This series is described as follows: general procedure: solution-phase peptide synthesis; HATU, N-methylmorpholine. The following applies: trifluoroacetate.
[1] abbreviates: late stage modification step, cyclic, sequence written open.

Starred links: 1 amine or outer side, 2 acyl side, 3 side chain; linkers in the order of their positions; H or OH if unused. Positions of bridges follow the written chain, without caps; N, C: chain ends. Non-standard residues stand in square brackets, D forms with d. Phe(3R-OH) = O=C([C@@H](N[*:1])[C@H](O[*:3])c1ccccc1)[*:2]; Asn(3S-OH) = NC(=O)[C@@H](O)[C@H](N)C(=O)O; Leu(3R-OH) = CC(C)[C@@H](O)[C@H](N)C(=O)O; dAla(TMS) = C[Si](C)(C)C[C@@H](N)C(=O)O; 3Pal = N[C@@H](Cc1cccnc1)C(=O)O; aThr = C[C@H](O)[C@H](N)C(=O)O

For “H-[dAla(TMS)][3Pal][Phe(3R-OH)][Leu(3R-OH)]L[dR]I[aThr]G[Asn(3S-OH)]S (ester 3-C; SMILES CC[C@H](C)[C@@H]1NC(=O)[C@@H](CCCNC(=N)N)NC(=O)[C@H](CC(C)C)NC(=O)[C@H]([C@H](O)C(C)C)NC(=O)[C@@H](NC(=O)[C@H](Cc2cccnc2)NC(=O)[C@H](N)C[Si](C)(C)C)[C@@H](c2ccccc2)OC(=O)[C@H](CO)NC(=O)[C@H]([C@H](O)C(N)=O)NC(=O)CNC(=O)[C@H]([C@H](C)O)NC1=O)”, the step yield (late stage modification step) is given as 67% of theory. Regarding “De(1-D-leucyl-2-L-leucyl)lysobactin bistrifluoroacetate (Edman^2.0 Degradation Product)”, for the setting “late stage modification step, from lysobactin bistrifluoroacetate”, the step yield is on record as 56% of theory. “N-(tert-Butoxycarbonyl)-3-(trimethylsilyl)-D-alanyl-3-(pyridin-3-yl)-L-alanyl-de(1-D-leucyl-2-L-leucyl)lysobactin trifluoroacetate”: the step yield runs as follows: (coupling step, run 1) 82%; (coupling step, run 2) 61%. With “(Trimethylsilyl)-D-alanyl-3-(pyridin-3-yl)-L-alanyl-de(1-D-leucyl-2-L-leucyl)lysobactin tris-L-lactate”, the step yield (late stage modification step) was 99% of theory. In the case of “N-[(Benzyloxy)carbonyl]-4,4-dimethyl-D-norleucyl-3-(pyridin-3-yl)-L-alanyl-de(1-D-leucyl-2-L-leucyl)-lysobactin trifluoroacetate”, for the setting “coupling step”, the step yield is on record as 43% of theory. Turning to “(Trimethylsilyl)-D-alanyl-3-(pyridin-3-yl)-L-alanyl-de(1-D-leucyl-2-L-leucyl)lysobactin tris-D-tartrate”, the step yield (late stage modification step) is reported as 52% of theory. On to “(Trimethylsilyl)-D-alanyl-3-(pyridin-3-yl)-L-alanyl-de(1-D-leucyl-2-L-leucyl)lysobactin trishydrochloride”, for which, for the setting “late stage modification step”, the step yield is listed as 89% of theory.

In the case of “4,4-Dimethyl-D-norleucyl-3-(pyridin-3-yl)-L-alanyl-de(1-D-leucyl-2-L-leucyl)lysobactin tristrifluoroacetate”, the step yield under setting [1] is 46% of theory. On the same count and under the same terms, the result for “3-tert-Butyl-D-alanyl-3-(6-trifluoromethylpyridin-3-yl)-L-alanyl-de(1-D-leucyl-2-L-leucyl)-lysobactin bistrifluoroacetate” reads 48% of theory.

On to “3-(Trimethylsilyl)-D-alanyl-3-(pyridin-3-yl)-L-alanyl-de(1-D-leucyl-2-L-leucyl)-lysobactin trismethanesulphonate”, for which the step yield runs as follows: (late stage modification step, run 1) 55% of theory; (late stage modification step, run 2) 92% of theory.
